Experimental findings from patent US8940719B2, “Lithocholic acid analogues that inhibit sialyltransferase” (Academia Sinica, priority 2006, dated 2015) are described below.

The test system of the data set is CL1-5 lung cancer cells. Description: Two-dimensional electrophoresis with phosphoprotein stain. The data set is classed as cell-based. The conditions noted are these: CL1-5 cells, 10 μM, 48 hours.

With `C[C@H](CCC(=O)O)C1CC[C@H]2C3CC[C@@H]4C[C@H](OC(=O)[C@@H](N)CC(=O)O)CC[C@]4(C)C3CC[C@]12C` (stereo partly drawn) [Compound 13, (R)-4-((3R,5R,10S,13R,14S)-3-((S)-2-amino-3-carboxypropanoyloxy)-10,13-dimethyl-hexadecahydro-1H-cyclopenta[a]phenanthren-17-yl)pentanoic acid], the “protein spots with decreased intensity on 2-D gels” value is given as “forty-nine spots with decreased intensity” and the “protein spots with increased intensity on 2-D gels” value is reported as “four spots with increased intensity”.
